Experimental data reported in paper PMC7042691.

T1: GFP::PfK13 (Plasmodium falciparum Kelch 13 protein, N-terminally tagged with 2xFKBP-GFP-2xFKBP) (Plasmodium falciparum) (UniProt Q8IDQ2)
T1 sequence: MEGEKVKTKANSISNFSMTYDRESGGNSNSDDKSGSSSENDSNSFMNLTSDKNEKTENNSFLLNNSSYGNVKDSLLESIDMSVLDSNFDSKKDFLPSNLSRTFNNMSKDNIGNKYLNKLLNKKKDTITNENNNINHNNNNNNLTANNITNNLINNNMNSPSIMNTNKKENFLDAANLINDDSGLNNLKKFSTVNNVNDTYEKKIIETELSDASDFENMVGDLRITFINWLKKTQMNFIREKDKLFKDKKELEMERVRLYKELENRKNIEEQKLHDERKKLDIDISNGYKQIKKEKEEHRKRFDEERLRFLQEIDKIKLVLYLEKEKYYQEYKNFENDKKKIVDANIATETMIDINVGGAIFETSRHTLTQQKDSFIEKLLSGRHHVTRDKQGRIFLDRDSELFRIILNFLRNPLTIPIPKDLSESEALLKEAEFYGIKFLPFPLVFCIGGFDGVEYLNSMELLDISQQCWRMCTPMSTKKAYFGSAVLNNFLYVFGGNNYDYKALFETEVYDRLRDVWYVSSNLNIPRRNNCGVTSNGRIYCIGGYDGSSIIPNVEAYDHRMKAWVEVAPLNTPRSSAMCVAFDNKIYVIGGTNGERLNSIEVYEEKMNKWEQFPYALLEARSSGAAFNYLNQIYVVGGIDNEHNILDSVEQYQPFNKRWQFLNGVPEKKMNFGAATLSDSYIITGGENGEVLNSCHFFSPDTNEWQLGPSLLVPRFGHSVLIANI


Biological target: T1, GFP::PfK13 (Plasmodium falciparum Kelch 13 protein, N-terminally tagged with 2xFKBP-GFP-2xFKBP) (Plasmodium falciparum)
Assay: affinity purification with mass spectrometry; GFP-Trap beads incubated with lysate of asexual blood-stage GFP::PfK13 parasites (30 mM Tris pH 7.5, 150 mM NaCl, 0.5 mM EDTA, 0.5% NP-40) for 4 h or overnight at 4°C; 3D7 parasites as control; LC-MS/MS; proteins common to three biological replicates, FDR 1%

Row | Binder | binding
1 | S-Adenosylmethionine synthase (protein, UniProt Q7K6A4 1-402) MSQLKIKRGNFLFTSESVNEGHPDKICDQISDAILDSCLREDPYSKVACEVCAKKNYIFIFGEITTKAKVNYDKVTRDVLKHIGYDDESKGLDYKTAEIKVSIDEQSPDIAQCVHENRSPELIGAGDQGIMFGYATDETENYMPLTHHYATLLGKRLTEVRKLGILPYLGPDGKTQITIEYKNKGSCGGHLEPLRVHTVLISTQHAEDIKYEQLKTDLMENVIKYVIPEKLLDNETLYYLNPSGKFVLGGPAADAGLTGRKIICDTYGGWGAHGGGAFSGKDASKVDRSAAYYLRFIAKSLVANKFCRRVLVQASYSIGIANPISLNVNSYGTVSTGYTDYDLEQIILRNFDLRPGFIIQELKLTEPVFSKTSAYGHFGREGDTFTWEKIKDLSHEKNALKN | binds
2 | High-molecular-weight rhoptry protein 2 (protein, UniProt C0H571 20-1378) LELNEKVSIKYGAEQGVGSADSNTKLCSDILKYLYMDEYLSEGDKATFEKKCHNVIGNIRNTFSNKNTIKEGNEFLMSILHMKSLYGNNNNNNAGSESDVTLKSLYLSLKGSQNTEGESEVPSDDEINKTIMNFVKFNKYLLDNSNDIKKVHDFLVLTSQSNENLLPNKEKLFEQIVDQIKYFDEYFFASGGKIKVKKGYLKYNFLDIYKQPVCSAYLHLCSRYYESVSIYIRLKKVFNGIPAFLDKNCRKVKGEEFKKLMDMELKHNHIVERFDKYIISDDLYYVNMKVFDLKNVDKIQVSKIDDINNLNIYEHKETMHLSAKNLSRYIDIKKELNDEKAYKQLMSAIRKYVTTLTKADSDITYFVKQLDDEEIERFLIDLNFFLYNGFLRITEDKHLINADDVSPSYINLYRSNNIVALYILKTQYEENKLSEYRAHKFYRRKRVSNITNDMIKKDFTQTNALTNLPNLDNKKTTEYYLKEYENFVENFQPDLHDIMKLQLFFTMAFKDCNVNQNFTETSKKLWFDLLYAYDKFGWFYIHPNEVINSINKTDFVRHVLVSRNFLLKNNDQLTFLETQVAKIVEIINLSLEVDKSPDSLDFSIPMNFFNHKNGYHVMNDDKLKLLTSYEYIDSIANNYFFLSEYKNDVFRTGNNFKLYFNLPNIYSLAYQLFNELAININVITNVPLKKYLKYNASYAYFTLMNMIGKNHDIYSKGSRFVYASYILGLVFFIESHIDIARLKPKDFFFMKQSLPIIDHVYHKDLKTLKKNCTLLTDFMKINKNSQNYSLTHTEEMIKILGLLTVTLWAKEGKKSVYYDDDVSLYRKLMVSCVFNGGETIQEKLANNIEKSCDISQYGIKSKNLKDMIDINLSIHKWNPAEIEKLAYSFVLSCKMQKLMYKPMNVEKLPLEDYYKLSLAPDMVKTYHCYKLGKQAAELLESIILKKKFVRFRVTDAIDVYDFFYIKKVLSSRIKKEYNEFLQDKRAFEKKELETILNNSPFSEEQTMKLINSYECHWFTSYENFRILWMHASSNLGTGTYLKNFFSELWQNIRFLFKSKLKIRDMEYFSGDISQMNLLDYYSPMVHSESHCQEKMQVLFITLRDSKEENRSEIAQKVKSAYYQCKLDYYKNHHSDFIHRIHPNDFLNNKVYVLKQPYYLMSNVPLNNPKKVSRLFVTEGTLEYLLLDKINIPECFGPCTKLHFNKVVIKESKQRIYDMTINNALVPEIQPYNRRKYMTIYINEAYIKNIVSDALTSEEIKRHDIQKGNIKICMGKSTYLTEPILTEEHFNLTHKPVYDFSSVKHNLKVFHMKNEHLVSEDPNDDCFINYPLATINLDISDPYKEISEDLIKNLYILKSS | binds
3 | T-complex protein 1 subunit gamma (protein, UniProt Q8I5C4 1-542) MLKNPGTVLVFKPNTKREEGRKTQLSNIQASRAVSDIVKTTLGPMAMLKMMLDPLGGIVITNDGNCILREVDVAHPAAKSLIELSRSQDEEVGDGTTSVVILSGELLSVAETFLRQNIHPTIIVNCYMNALDSSLKFLEEISIDIDVNSESDLLKAIDSCLSTKFVNRYNKIVSKLALEATRCVKMDNLMGRKEIDIKRYAKVEKIPGGDITDSYVLKGVMINKDITHPKMRRYIKNPRILLLDCTLEYKKAESQTNVEILDEKTWNELLLQEEIEVKKMCEYIIDSKCDIVITEKGVSDLAQHFLVKKNISVIRRVRKTDLNRLERISGATIVNRCEEIVEGDIGTKCGLFEIKKIGDDYYSFFVECKDPHACTILLRGSTKDVLNEIERNLHDGMNVAKNILMEGKLLYGGGCTEIRVGQYLIKEAAKFNDSRKSITEAVASALEIIPKILAQNSGVNVVKTMNELRIKHEQEGGQEFGIDGITGDIIKVTTKNIWDLLSVKKQIYKSAIEAASMILRIDDVVSGVGKDEKVQKTIKNEF | binds
4 | 26S protease regulatory subunit 6B (protein, UniProt Q8I1V1 1-392) MESVSKCLTEEDYYIRLKNLKKQIDILNIQEDYIKEEHKNLKRELIRSKNEIKRIQSVPLIIGQFLDIIDNNYGIVSSTAGSNYYVRILSTLNKEDLKPSVSVALHRHSHSIVNILPSESDSSIQLLQITERPNVKYTDLGGLDMQKQEMKEAVELPLTCPELYEKIGIEPPMGILIYGPPGTGKTMLVKAVANETQVTFIGVVGSEFVQKYLGEGPRMVRDVFRLARENSPSIIFIDEVDAIATKRFDAQTGADREVQRILLELLNQMDGFDKSTNVKVIMATNRADTLDPALLRPGRLDRKIEFPLPDRKQKRLIFQTIISKMNVSSDVNIESFVVRTDKISAADIAAIAQEAGMQAIRKNRYIITANDFEQGYRTHVRKQLRDYEFYNI | binds
5 | 40S ribosomal protein S3a (protein, UniProt O97313 1-262) MAVGKNKRTSKGKKGGKKKVTDVFTKKEWYDLKAPKMFLVRNFGKTLVTKTIGKKLATDSLKGRIYEVNLADLNNDEDQAHKKIKLSCDHIINRDCYTDFCGLSITRDKLCSLIRKGYTLIEGHTDVKTLDNYHLRMFCIAFTKKRQNQTKSTCYAQTSQIKKIRKKMVDIMTAEASKVLLKDLVKKFIPESIGKEIEKQCKKIYPLQNVLIRKVKILKRPKLDISKLMELHTDPKEESGKNVNALPESKEATNILTAELKH | binds
6 | 60S acidic ribosomal protein P0 (protein, UniProt Q8II61 1-316) MAKLSKQQKKQMYIEKLSSLIQQYSKILIVHVDNVGSNQMASVRKSLRGKATILMGKNTRIRTALKKNLQAVPQIEKLLPLVKLNMGFVFCKDDLSEIRNIILDNKSPAPARLGVIAPIDVFIPPGPTGMDPSHTSFFQSLGISTKIVKGQIEIQEHVHLIKQGEKVTASSATLLQKFNMKPFSYGVDVRTVYDDGVIYDAKVLDITDEDILEKFSKGVSNVAALSRATGVITEASYPHVFVEAFKNIVALIIDSDYTFPLMENIKKMVENPEAFAAVAAPASAAKADEPKKEEAKKVEEEEEEEEDGFMGFGMFD | binds
7 | 60S ribosomal protein L12 (protein, UniProt Q8I3T8 1-165) MAKKPDPNEIKYVFIRQVGGEVGASSVLSPKLGPLGLSPKKVGDDIAKETQSWKGLKICVKLTIQNRQAKVEVVPTSAALILKELNEAPRDRKKVKNIKHNGNLKLEQVYSIARVMKEKSRAKEFKGTVKEMLGTCNSIGCTVDGKKPTTIQEMIDSGEIDVPLE | binds
8 | Protein DJ-1 (protein, UniProt C6KTB1 1-189) MSGKKTALVAVASGSEDVEYITVVDVLRRAGVHVTTASVEKSEQVCLQSKNVVLADTTISKVRNNIYDVLVIPGGMKGSNTISECSEFIDMLKEQKANNRLYAAICAAPETVLDRHSLIDDVEAVAYPSFERNFKHIGKGRVCVSKNCITSVGPGSAVEFGLKIVEHLLGRQVALSLASGFLLHPAVTF | binds
9 | Acyl coenzyme A synthetase (protein, UniProt Q8I3L4 1-673) MDNGNNEILYSVKISEPRDKNSTGIYRHPEYKDKLCENFDDKKFNNMWEVFDRVSTKFKERDCMGVREKLEDNKRGAYQWKNFGEVKELIMKVGSGLLNMNACPLIMCDDQRIPKARFLGLYMPNCPEWNICDLGCNAYNIITVPLYDSLGPQSSRFILDQTQMETIVCDKTCARNLFKSLETCEEIYLKTLILVDEIDDEIKKECSKYNLKIILWEELIKQGEKKIVKVPQGALNNIFSICYTSGTTGYPKGVIMTNRNFIGILAAAYIGPSRLPDLCINENDIHISYLPLAHIYERLMIYLFMAHGVKVGYYSGNVQTLLEDIQELKPTLFISVPRLYNRIHERIFNSLKKKSGLVQSLFNKGLQNKIKRLSSSGSTTHVLWDKLLFNKAKKILGGHVRAMLNGSAPISVDVVKKLRTIFCVPMFEGYGMTESLGASFITHSQDRNIGHIGGPVPCIEFKLVSVPEMNYLVTDNPPKGELYLRGPSTCNLGYFKLEKETNELLEKDGFIRTGDIALLSPNGSLTIIDRKKNIFKLAQGEYVAVEKVEASYKQSLFISQIFVFGYSYESVLVCVICPSTDSIDIWRTQKKIKATDEEVIKLPEFKADVINDLTSIGKKDGLKGFEQIKDIHFTLEAFTIENDLMTPTGKIKRHEAKKRFKKEIDEMYEKLKQ | binds
10 | 40S ribosomal protein S16 (protein, UniProt Q8IAX5 1-144) MTTKVKRVQTFGKKKTAVAVATVTNGKGLIKLNGKNLDLVEPYILKTKVYEPLWLIGSGKLKNLDIRIRVKGGGQTSQIYAIRQAIGKGIISYYQKYVDESTKKELKDVLLRYDRSLLVGDTRRCEPKKFGGKGARARYQKSYR | binds
11 | 40S ribosomal protein S19 (protein, UniProt Q8IFP2 1-170) MAEQFTEDIGVVNKRLLEPVPFVKTNNCIKDVDADLFIRSYATHLKLHNKITYPKWCTFVKTGKGRKLAPLNEDWYFIRASSILRRLYLHPDIGVGFLRRQFSSKQRRGVAPNHTSLASGKILRSILQQLENLGYVEQNPKKKGRRLTTKGENAINNFARYINKKVYNKE | binds
12 | 14-3-3 protein (protein, UniProt C0H4V6 1-262) MATSEELKQLRCDCTYRSKLAEQAERYDEMADAMRTLVEQCVNNDKDELTVEERNLLSVAYKNAVGARRASWRIISSVEQKEMSKANVHNKNVAATYRKKVEEELNNICQDILNLLTKKLIPNTSESESKVFYYKMKGDYYRYISEFSCDEGKKEASNCAQEAYQKATDIAENELPSTHPIRLGLALNYSVFFYEILNQPHQACEMAKRAFDDAITEFDNVSEDSYKDSTLIMQLLRDNLTLWTSDLQGDQTEEKSKDEGLE | binds

Results are given in words; binding and its absence hold for the method and conditions named. Binding seen in cells or lysates may run through a third protein. These calls come from enrichment with a bait or labelling near it, and not all partners need be listed. Sequences can lack the tags named with a protein.
